± gives the standard deviation of the averaged measurements. This is one part of the list.
tested on: APPdp1-6 iPSC-derived neurons; assay: pThr231Tau/total Tau ratio Z-score vs DMSO vehicle wells; higher = more pThr231Tau relative to total Tau; conditions: 5 µM; treatment time 5 days

Row | SMILES | pThr231Tau/total Tau ratio Z-score
1 | CCOC(=O)C1=C(C)NC(C)=C(C(=O)OC)C1c1cccc(Cl)c1Cl (stereo not given) [Prestw-478] | 0.199 ± 2
2 | O=C1c2c(O)ccc(O)c2C(=O)c2c(NCCNCCO)ccc(NCCNCCO)c21 [Prestw-385] | -4.16 ± 1.9
3 | O=C(NC(Cc1cc(=O)[nH]c2ccccc12)C(=O)O)c1ccc(Cl)cc1 (stereo not given) [Prestw-1166] | 0.00334 ± 0.71
4 | Nc1ncn(C2OC(CO)C(O)C2O)c(=O)n1 (stereo not given) [Prestw-866] | 0.373 ± 0.39
5 | C[N+](C)(C)CCOC(N)=O [Prestw-880] | 0.121 ± 0.94
6 | CC(C)(C)NC[C@H](O)COc1cccc2c1CCCC2=O [Prestw-847] | 0.757 ± 0.052
7 | O=C(O)CCC(=O)c1ccc(-c2ccccc2)cc1 [Prestw-218] | -0.416 ± 0.58
8 | N[C@@H](Cc1ccc(O)c(O)c1)C(=O)O [Prestw-17] | 0.813 ± 0.062
9 | CN1CCN2c3ccccc3Cc3ccccc3C2C1 (stereo not given) [Prestw-99] | -0.685 ± 0.62
10 | O=C1c2cccc(O)c2C(=O)c2c(O)cccc21 [DANTRON    Cathartic ex Rheum palmatum, Xyris semifuscata] | -0.0604 ± 0.0028
11 | CCOC(N)=O [URETHANE    Therap cat: antineoplastic, cytotoxic] | 0.83 ± 1.6
12 | CC(C)NNC(=O)c1ccncc1 [Prestw-176] | 0.426 ± 1.2
13 | CC(=O)N=c1sc(S(N)(=O)=O)nn1C [Prestw-802] | -0.412 ± 1
14 | Cc1cc2nc3c(=O)[nH]c(=O)nc-3n(C[C@H](O)[C@H](O)[C@H](O)COP(=O)(O)O)c2cc1C [RIBOFLAVIN 5-PHOSPHATE SODIUM, vitamin, enzyme cofactor] | 0.705 ± 1.1
15 | COc1ccc(C[C@@H](C)NC[C@H](O)c2ccc(O)c(NC=O)c2)cc1 [Prestw-1421] | -1.08 ± 0.87
16 | CCN(CC)CCNC(=O)c1cc(Br)c(N)cc1OC [Prestw-704] | -0.163 ± 1.9
17 | OC(CCN1CCCCC1)(c1ccccc1)c1ccccc1 [Prestw-799] | -0.824 ± 0.73
18 | Cn1c(=O)c2c(ncn2CC2OCCO2)n(C)c1=O [Prestw-1136] | -0.814 ± 0.53
19 | CN1CCN(CC(=O)N2c3ccccc3C(=O)Nc3cccnc32)CC1 [Prestw-129] | -0.978 ± 0.6
20 | CC(=O)N(CC(O)CO)c1c(I)c(C(=O)NCC(O)CO)c(I)c(C(=O)NCC(O)CO)c1I (stereo not given) [Prestw-512] | -0.0769 ± 0.65

Copied from the list.
Entry for `CCN(CC)CCNC(=O)c1cc(Br)c(N)cc1OC` [Prestw-704] under pThr231Tau/total Tau ratio Z-score: -0.163 ± 1.9
Entry for `N[C@@H](Cc1ccc(O)c(O)c1)C(=O)O` [Prestw-17] under pThr231Tau/total Tau ratio Z-score: 0.813 ± 0.062

Going on with the list.

Row | SMILES | pThr231Tau/total Tau ratio Z-score
21 | CN(CCCCCCCCCCN(C)C(=O)Oc1cccc([N+](C)(C)C)c1)C(=O)Oc1cccc([N+](C)(C)C)c1 [Prestw-616] | -0.781 ± 0.45
22 | Cn1cc[nH]c1=S [Prestw-786] | -0.507 ± 1.2
23 | C[C@H]1O[C@H](O[C@H]2[C@H](O)[C@@H](O)[C@@H](O[C@@H]([C@H](O)[C@@H](O)C=O)[C@H](O)CO)O[C@@H]2CO)[C@H](O)[C@@H](O)[C@@H]1N[C@H]1C=C(CO)[C@@H](O)[C@H](O)[C@H]1O [Prestw-1174] | 1.2 ± 1.7
24 | CC1=NS(=O)(=O)c2cc(Cl)ccc2N1 [Prestw-87] | 2.85 ± 0.41
25 | c1ccc(-c2ccc(C(c3ccccc3)n3ccnc3)cc2)cc1 (stereo not given) [Prestw-1241] | -1.56 ± 0.26
26 | Oc1c(Cl)cc(Cl)c2cccnc12 [Prestw-1474] | -1.69 ± 0.85
27 | CN(C)CCC(c1ccc(Br)cc1)c1ccccn1 (stereo not given) [Prestw-475] | 0.453 ± 0.35
28 | CC(=O)OC[C@H]1O[C@@H]([S-])[C@H](OC(C)=O)[C@@H](OC(C)=O)[C@@H]1OC(C)=O.CCP(CC)CC.[Au+] [Prestw-1233] | -2.33 ± 0.47
29 | CCC1(c2ccccc2)C(=O)NCNC1=O [Prestw-933] | 1.37 ± 0.57
30 | N#Cc1ccc2c(c1)N(CCCN1CCC(O)CC1)c1ccccc1S2 [PERICIAZINE    Therap cat: antipsychotic] | 0.5 ± 1.3
31 | Nc1ncnc2c1ncn2[C@@H]1O[C@H](CO)[C@@H](O)[C@@H]1O [Prestw-768] | -0.43 ± 1.1
32 | C[C@H]1C[C@H]2[C@@H]3CCC4=CC(=O)C=C[C@]4(C)[C@@]3(F)[C@@H](O)C[C@]2(C)[C@@]1(O)C(=O)COP(=O)(O)O | 1.02 ± 0.74
33 | C[C@@](Cc1ccc(O)c(O)c1)(NN)C(=O)O [Prestw-1177] | -0.0182 ± 1.1
34 | CN(C)CCOC(c1ccccc1)c1ccccc1.Cn1c(=O)c2[nH]c(Cl)nc2n(C)c1=O [Prestw-265] | 0.184 ± 1.8
35 | O=C1NCC2(CCN(CCc3ccccc3)CC2)O1 [Prestw-213] | -0.872 ± 1
36 | Clc1ccc2c(c1)CCc1cccnc1C2=C1CCNCC1 [Prestw-1390] | 0.0479 ± 0.65
37 | Cc1cc2nc3c(=O)[nH]c(=O)nc-3n(C[C@H](O)[C@H](O)[C@H](O)CO)c2cc1C | -0.125 ± 0.25
38 | O=C(c1ccc(F)cc1)C1CCN(CCn2c(=O)[nH]c3ccccc3c2=O)CC1 [Prestw-392] | 1.24 ± 1
39 | CCN(CC)C(=O)c1ccc(O)c(OC)c1 [Prestw-500] | 0.0641 ± 0.031
40 | CCCCCCCCCCOc1cc2c(=O)c(C(=O)OCC)c[nH]c2cc1OCC [DECOQUINATE, coccidiostat] | -0.00316 ± 0.46

From the supplement of paper PMC6414424
